From patent publication US10047050B2, “3,4-di-substituted pyridine compound, methods of using and compositions comprising the same” (ARDEA BIOSCIENCES, INC., priority 2011, dated 2018)
Values joined by “and” are separate entries in the source; they are usually repeats but may differ in a detail not shown here. Equal values may be shown once. This continues a long series; more values of the same kind are listed elsewhere.

Test system: serum uric acid
Experiment: Multi-dose Phase I clinical trial, serum uric acid (sUA), once daily for 10 days
Assay type: in vivo, human
Text: A Phase 1, Randomized, Double-Blind, Placebo-Controlled Study to Evaluate Safety, Tolerability, Pharmacokinetics and Preliminary Food Effect of Multiple Rising Doses of a URAT1 Inhibitor, in Healthy Adult Male Volunteers.
Fasted subjects receive oral doses of active or placebo, once daily, for 10 days, at the following doses:
36 subjects in 3 dose groups, 12 subjects/group, are randomized […] to receive active (9/group) or placebo ([…]). All study procedures are the same regardless of whether subject receives active or placebo. Total duration of subject participation, including screening period, is ˜2-4 weeks, and the total volume of blood collected from each subject during the entire study <500 mL, (less than typically collected during a volunteer blood donation).
5 mg, active and placebo, tablets packaged in 35 count HDPE bottles, stored at controlled room temperature (15-30° C.). Placebo tablets are designed to match the active tablets—identical size, form, taste, and color, and containing the same excipients. 1 mg doses were administered as oral solutions.
Subjects dosed in the morning of Days 1-10 with ˜240 mL of room temp water.
Urine, serum and plasma samples collected periodically
PD samples frozen (−20° C.) and stored; all samples from a given subject assayed in a single analytical run.

[1] = group 7, 1 mg once daily for 10 days, Time 246 (post dosing), individual subjects 4-12
[2] = group 7, 1 mg once daily for 10 days, Time 252 (post dosing), individual subjects 4-12
[3] = group 7, 1 mg once daily for 10 days, Time 264 (post dosing), individual subjects 4-12
[4] = group 7, 1 mg once daily for 10 days, Time 270 (post dosing), individual subjects 4-12
[5] = group 7, 1 mg once daily for 10 days, Time 288 (post dosing), individual subjects 4-12
[6] = group 7, 1 mg once daily for 10 days, Time 312 (post dosing), individual subjects 4-12
[7] = group 8, 5 mg once daily for 10 days, Time 0, individual subjects 4-10
[8] = group 8, 5 mg once daily for 10 days, Time 6, individual subjects 4-10
[9] = group 8, 5 mg once daily for 10 days, Time 12, individual subjects 4-10
[10] = group 8, 5 mg once daily for 10 days, Time 24, individual subjects 4-10
[11] = group 8, 5 mg once daily for 10 days, Time 48, individual subjects 4-10
[12] = group 8, 5 mg once daily for 10 days, Time 72, individual subjects 4-10
[13] = group 8, 5 mg once daily for 10 days, Time 96, individual subjects 4-10

## CC(C)(Sc1ccncc1-c1ccc(C#N)c2ccccc12)C(=O)O [2-((3-(4-cyanonaphthalen-1-yl)pyridin-4-yl)thio)-2-methylpropanoic acid]
Group 7, 1 mg once daily for 10 days, Time 168, individual subjects 4-12
  % sUA change (from baseline): −10.3% and 3.6% and 3.7% and 2.9% and −1.4% and −6.0% and 4.8% and −10.0% and 5.1%
Group 7, 1 mg once daily for 10 days, Time 192, individual subjects 4-12
  % sUA change (from baseline): −20.7% and −10.7% and −9.3% and −7.1% and −11.6% and −11.9% and −9.7% and −15.0% and −6.8%
Group 7, 1 mg once daily for 10 days, Time 216, individual subjects 4-12
  % sUA change (from baseline): −19.0% and −12.5% and −13.0% and −12.9% and −15.9% and −20.9% and −9.7% and −18.3% and 0.0%
Group 7, 1 mg once daily for 10 days, Time 222 (post dosing), individual subjects 4-12
  % sUA change (from baseline): −19.0% and −7.1% and −9.3% and −10.0% and −14.5% and −13.4% and −12.9% and −16.7% and −6.8%
Group 7, 1 mg once daily for 10 days, Time 228 (post dosing), individual subjects 4-12
  % sUA change (from baseline): −25.9% and −14.3% and −9.3% and −11.4% and −18.8% and −17.9% and −14.5% and −20.0% and −8.5%
Group 7, 1 mg once daily for 10 days, Time 240 (post dosing), individual subjects 4-12
  % sUA change (from baseline): −17.2% and −1.8% and −1.9% and −1.4% and −10.1% and −7.5% and −4.8% and −13.3% and 1.7%
[1]
  % sUA change (from baseline): −24.1% and −14.3% and −9.3% and −8.6% and −15.9% and −16.4% and −8.1% and −15.0% and −6.8%
  Absolute sUA concentration: 4.8 mg/dL and 4.9 mg/dL and 6.4 mg/dL and 5.8 mg/dL and 5.6 mg/dL and 5.7 mg/dL and 5.1 mg/dL and 5.5 mg/dL
[2]
  % sUA change (from baseline): −22.4% and −10.7% and −7.4% and −1.4% and −11.6% and −11.9% and −4.8% and −16.7% and −8.5%
  Absolute sUA concentration: 4.5 mg/dL and 5.0 mg/dL (3×) and 6.9 mg/dL and 6.1 mg/dL and 5.9 mg/dL (2×) and 5.4 mg/dL
[3]
  % sUA change (from baseline): −22.4% and −8.9% and −5.6% and −8.6% and −10.1% and −10.4% and −8.1% and −15.0% and −3.4%
  Absolute sUA concentration: 4.5 mg/dL and 5.1 mg/dL (3×) and 6.4 mg/dL and 6.2 mg/dL and 6.0 mg/dL and 5.7 mg/dL (2×)
[4]
  % sUA change (from baseline): −29.3% and −17.9% and −11.1% and −14.3% and −14.5% (2×) and −19.4% and −21.7% and −13.6%
  Absolute sUA concentration: 4.1 mg/dL and 4.6 mg/dL and 4.8 mg/dL and 6.0 mg/dL and 5.9 mg/dL and 5.4 mg/dL and 5.3 mg/dL and 4.7 mg/dL and 5.1 mg/dL
[5]
  % sUA change (from baseline): −32.8% and −19.6% and −16.7% and −14.3% and −15.9% and −19.4% and −16.1% and −26.7% and −16.9%
  Absolute sUA concentration: 3.9 mg/dL and 4.5 mg/dL (2×) and 6.0 mg/dL and 5.8 mg/dL and 5.4 mg/dL and 5.2 mg/dL and 4.4 mg/dL and 4.9 mg/dL
[6]
  % sUA change (from baseline): −24.1% and −16.1% and −14.8% and −11.4% and −11.6% and −16.4% and −12.9% and −18.3% and −8.5%
  Absolute sUA concentration: 4.4 mg/dL and 4.7 mg/dL and 4.6 mg/dL and 6.2 mg/dL and 6.1 mg/dL and 5.6 mg/dL and 5.4 mg/dL (2×) and 4.9 mg/dL
[7]
  % sUA change (from baseline): 0%
  Absolute sUA concentration: 5.3 mg/dL and 6.5 mg/dL (2×) and 6.0 mg/dL and 5.8 mg/dL and 5.6 mg/dL and 5.5 mg/dL
[8]
  % sUA change (from baseline): −15.1% and −18.5% (2×) and −20.0% and −17.2% and −23.2% and −30.9%
  Absolute sUA concentration: 4.5 mg/dL and 5.3 mg/dL (2×) and 4.8 mg/dL (2×) and 4.3 mg/dL and 3.8 mg/dL
[9]
  % sUA change (from baseline): −24.5% and −20.0% and −18.5% and −25.0% and −20.7% and −30.4% and −40.0%
  Absolute sUA concentration: 4.0 mg/dL and 5.2 mg/dL and 5.3 mg/dL and 4.5 mg/dL and 4.6 mg/dL and 3.9 mg/dL and 3.3 mg/dL
[10]
  % sUA change (from baseline): −28.3% and −18.5% and −13.8% and −16.7% and −6.9% and −25.0% and −38.2%
  Absolute sUA concentration: 3.8 mg/dL and 5.3 mg/dL and 5.6 mg/dL and 5.0 mg/dL and 5.4 mg/dL and 4.2 mg/dL and 3.4 mg/dL
[11]
  % sUA change (from baseline): −43.4% and −20.0% and −36.9% and −26.7% and −12.1% and −33.9% and −43.6%
  Absolute sUA concentration: 3.0 mg/dL and 5.2 mg/dL and 4.1 mg/dL and 4.4 mg/dL and 5.1 mg/dL and 3.7 mg/dL and 3.1 mg/dL
[12]
  % sUA change (from baseline): −39.6% and −30.8% and −35.4% and −28.3% and −19.0% and −37.5% and −45.5%
  Absolute sUA concentration: 3.2 mg/dL and 4.5 mg/dL and 4.2 mg/dL and 4.3 mg/dL and 4.7 mg/dL and 3.5 mg/dL and 3.0 mg/dL
[13]
  % sUA change (from baseline): −32.1% and −29.2% and −33.8% and −30.0% and −17.2% and −33.9% and −36.4%
  Absolute sUA concentration: 3.6 mg/dL and 4.6 mg/dL and 4.3 mg/dL and 4.2 mg/dL and 4.8 mg/dL and 3.7 mg/dL and 3.5 mg/dL
